Results are given in words; binding and its absence hold for the method and conditions named. Binding seen in cells or lysates may run through a third protein. Here binding means that the protein was enriched with, or labelled near, the bait; the list need not be complete.
Target: C-terminal FLAG-tagged AcrZ from Escherichia coli (E. coli) (UniProt P0AAW9)
Assay: affinity purification with mass spectrometry; cell-free synthesised FLAG-tagged bait (approximately 100 pmol) incubated with 200 μl total membrane of the corresponding E. coli KO strain solubilised in 1% LMNG (8 mg/ml) at 4 °C overnight; anti-FLAG M2 magnetic beads 16 h; ten washes (20 mM Tris-HCl pH 8.0, 150 mM NaCl, 0.01% LMNG); eluted with SLS at 90 °C, shotgun MS; enriched at Z-score of at least 2 in two experiments

By UniProt entry, the sequences of proteins in these tests, tags left out.
UniProt P0AAW9: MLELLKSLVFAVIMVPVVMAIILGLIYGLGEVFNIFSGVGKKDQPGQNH

B1: MdtF (protein, UniProt P37637 1-1037)
chain: MANYFIDRPVFAWVLAIIMMLAGGLAIMNLPVAQYPQIAPPTITVSATYPGADAQTVEDSVTQVIEQNMNGLDGLMYMSSTSDAAGNASITLTFETGTSPDIAQVQVQNKLQLAMPSLPEAVQQQGISVDKSSSNILMVAAFISDNGSLNQYDIADYVASNIKDPLSRTAGVGSVQLFGSEYAMRIWLDPQKLNKYNLVPSDVISQIKVQNNQISGGQLGGMPQAADQQLNASIIVQTRLQTPEEFGKILLKVQQDGSQVLLRDVARVELGAEDYSTVARYNGKPAAGIAIKLAAGANALDTSRAVKEELNRLSAYFPASLKTVYPYDTTPFIEISIQEVFKTLVEAIILVFLVMYLFLQNFRATIIPTIAVPVVILGTFAILSAVGFTINTLTMFGMVLAIGLLVDDAIVVVENVERVIAEDKLPPKEATHKSMGQIQRALVGIAVVLSAVFMPMAFMSGATGEIYRQFSITLISSMLLSVFVAMSLTPALCATILKAAPEGGHKPNALFARFNTLFEKSTQHYTDSTRSLLRCTGRYMVVYLLICAGMAVLFLRTPTSFLPEEDQGVFMTTAQLPSGATMVNTTKVLQQVTDYYLTKEKDNVQSVFTVGGFGFSGQGQNNGLAFISLKPWSERVGEENSVTAIIQRAMIALSSINKAVVFPFNLPAVAELGTASGFDMELLDNGNLGHEKLTQARNELLSLAAQSPNQVTGVRPNGLEDTPMFKVNVNAAKAEAMGVALSDINQTISTAFGSSYVNDFLNQGRVKKVYVQAGTPFRMLPDNINQWYVRNASGTMAPLSAYSSTEWTYGSPRLERYNGIPSMEILGEAAAGKSTGDAMKFMADLVAKLPAGVGYSWTGLSYQEALSSNQAPALYAISLVVVFLALAALYESWSIPFSVMLVVPLGVVGALLATDLRGLSNDVYFQVGLLTTIGLSAKNAILIVEFAVEMMQKEGKTPIEAIIEAARMRLRPILMTSLAFILGVLPLVISHGAGSGAQNAVGTGVMGGMFAATVLAIYFVPVFFVVVEHLFARFKKA
In the case of B1, the binding is reported as “binds”.
